PMC9408895
These are yes or no findings as the source states them, for the method shown. Binding can be weak; no strength is given. Sequences can lack the tags named with a protein.

Biological target: senescence-suppressed protein phosphatase SSPP (His-SSPP) (Arabidopsis)
Test: pull-down; His-SSPP bound to Ni Sepharose 6 Fast Flow beads; approximately 10 ug GST-AtSARK-CD with or without mutation added; at least 2 h at 4 °C; binding buffer 1.5 M NaCl, 10.1 mM Na2HPO4, 1.8 mM KH2PO4, 20 mM imidazole; eluted with 500 mM imidazole; anti-GST blot; both purified

binding | Binder
binds | GST-AtSARK-CD Y473E (domain or fragment, UniProt Q8VYT3 260-648) CWYRKKQRRLLILNLNDKQEEGLQGLGNLRSFTFRELHVYTDGFSSKNILGAGGFGNVYRGKLGDGTMVAVKRLKDINGTSGDSQFRMELEMISLAVHKNLLRLIGYCATSGERLLVYPYMPNGSVASKLKSKPALDWNMRKRIAIGAARGLLYLHEQCDPKIIHRDVKAANILLDECFEAVVGDFGLAKLLNHADSHVTTAVRGTVGHIAPEELSTGQSSEKTDVFGFGILLLELITGLRALEFGKTVSQKGAMLEWVRKLHEEMKVEELLDRELGTNYDKIEVGEMLQVALLCTQYLPAHRPKMSEVVLMLEGDGLAERWAASHNHSHFYHANISFKTISSLSTTSVSRLDAHCNDPTYQMFGSSAFDDDDDHQPLDSFAMELSGPR
binds | GST-AtSARK-CD Y473F (domain or fragment, UniProt Q8VYT3 260-648) CWYRKKQRRLLILNLNDKQEEGLQGLGNLRSFTFRELHVYTDGFSSKNILGAGGFGNVYRGKLGDGTMVAVKRLKDINGTSGDSQFRMELEMISLAVHKNLLRLIGYCATSGERLLVYPYMPNGSVASKLKSKPALDWNMRKRIAIGAARGLLYLHEQCDPKIIHRDVKAANILLDECFEAVVGDFGLAKLLNHADSHVTTAVRGTVGHIAPEFLSTGQSSEKTDVFGFGILLLELITGLRALEFGKTVSQKGAMLEWVRKLHEEMKVEELLDRELGTNYDKIEVGEMLQVALLCTQYLPAHRPKMSEVVLMLEGDGLAERWAASHNHSHFYHANISFKTISSLSTTSVSRLDAHCNDPTYQMFGSSAFDDDDDHQPLDSFAMELSGPR
